# Measurements taken from paper PMC4371837.
# Amino acid sequences for entries named in this document (tags omitted).
# UniProt Q921E6: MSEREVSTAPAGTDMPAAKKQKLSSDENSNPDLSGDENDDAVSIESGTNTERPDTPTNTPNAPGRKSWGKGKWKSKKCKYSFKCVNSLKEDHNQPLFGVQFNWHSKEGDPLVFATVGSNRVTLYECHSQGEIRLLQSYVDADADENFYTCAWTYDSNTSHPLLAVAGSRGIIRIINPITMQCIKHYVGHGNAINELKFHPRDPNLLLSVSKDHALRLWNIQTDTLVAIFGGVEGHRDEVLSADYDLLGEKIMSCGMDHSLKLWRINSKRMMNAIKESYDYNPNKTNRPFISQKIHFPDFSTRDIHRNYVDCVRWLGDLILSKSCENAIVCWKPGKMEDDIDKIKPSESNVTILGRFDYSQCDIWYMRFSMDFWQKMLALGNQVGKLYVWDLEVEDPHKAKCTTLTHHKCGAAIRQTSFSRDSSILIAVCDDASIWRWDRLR
# UniProt Q80U70: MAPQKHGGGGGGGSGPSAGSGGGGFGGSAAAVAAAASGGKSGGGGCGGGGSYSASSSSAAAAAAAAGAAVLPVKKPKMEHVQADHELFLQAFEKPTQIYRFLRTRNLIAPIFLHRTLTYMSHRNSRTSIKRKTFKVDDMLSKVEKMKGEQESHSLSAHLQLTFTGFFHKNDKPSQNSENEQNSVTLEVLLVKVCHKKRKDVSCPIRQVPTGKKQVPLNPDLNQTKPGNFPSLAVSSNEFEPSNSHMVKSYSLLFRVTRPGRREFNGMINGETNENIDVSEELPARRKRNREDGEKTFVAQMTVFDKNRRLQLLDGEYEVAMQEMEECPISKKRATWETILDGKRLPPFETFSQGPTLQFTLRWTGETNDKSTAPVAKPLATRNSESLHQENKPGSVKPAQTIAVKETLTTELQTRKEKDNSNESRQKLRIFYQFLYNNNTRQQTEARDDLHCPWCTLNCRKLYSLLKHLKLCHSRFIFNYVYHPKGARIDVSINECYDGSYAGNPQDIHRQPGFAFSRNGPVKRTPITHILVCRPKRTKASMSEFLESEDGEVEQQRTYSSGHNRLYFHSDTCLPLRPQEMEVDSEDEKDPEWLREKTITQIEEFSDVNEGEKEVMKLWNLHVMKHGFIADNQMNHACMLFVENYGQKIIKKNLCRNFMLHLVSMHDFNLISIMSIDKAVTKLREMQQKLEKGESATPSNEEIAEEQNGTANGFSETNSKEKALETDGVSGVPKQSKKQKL
# No constants are given. Whether binding was seen depends on the method and setting. In cells and extracts the contact can be indirect. Some entries that bind do so weakly or less than the wild type. Tags and fused reporters may be left off the sequences shown.
# Biological target: T1, Flag-BioT-mREST (mouse REST tagged with a biotin acceptor sequence) (mouse) (UniProt Q8VIG1)
# T1 sequence (chain, biotin on the biotin acceptor sequence (cells express E. coli BirA ligase)): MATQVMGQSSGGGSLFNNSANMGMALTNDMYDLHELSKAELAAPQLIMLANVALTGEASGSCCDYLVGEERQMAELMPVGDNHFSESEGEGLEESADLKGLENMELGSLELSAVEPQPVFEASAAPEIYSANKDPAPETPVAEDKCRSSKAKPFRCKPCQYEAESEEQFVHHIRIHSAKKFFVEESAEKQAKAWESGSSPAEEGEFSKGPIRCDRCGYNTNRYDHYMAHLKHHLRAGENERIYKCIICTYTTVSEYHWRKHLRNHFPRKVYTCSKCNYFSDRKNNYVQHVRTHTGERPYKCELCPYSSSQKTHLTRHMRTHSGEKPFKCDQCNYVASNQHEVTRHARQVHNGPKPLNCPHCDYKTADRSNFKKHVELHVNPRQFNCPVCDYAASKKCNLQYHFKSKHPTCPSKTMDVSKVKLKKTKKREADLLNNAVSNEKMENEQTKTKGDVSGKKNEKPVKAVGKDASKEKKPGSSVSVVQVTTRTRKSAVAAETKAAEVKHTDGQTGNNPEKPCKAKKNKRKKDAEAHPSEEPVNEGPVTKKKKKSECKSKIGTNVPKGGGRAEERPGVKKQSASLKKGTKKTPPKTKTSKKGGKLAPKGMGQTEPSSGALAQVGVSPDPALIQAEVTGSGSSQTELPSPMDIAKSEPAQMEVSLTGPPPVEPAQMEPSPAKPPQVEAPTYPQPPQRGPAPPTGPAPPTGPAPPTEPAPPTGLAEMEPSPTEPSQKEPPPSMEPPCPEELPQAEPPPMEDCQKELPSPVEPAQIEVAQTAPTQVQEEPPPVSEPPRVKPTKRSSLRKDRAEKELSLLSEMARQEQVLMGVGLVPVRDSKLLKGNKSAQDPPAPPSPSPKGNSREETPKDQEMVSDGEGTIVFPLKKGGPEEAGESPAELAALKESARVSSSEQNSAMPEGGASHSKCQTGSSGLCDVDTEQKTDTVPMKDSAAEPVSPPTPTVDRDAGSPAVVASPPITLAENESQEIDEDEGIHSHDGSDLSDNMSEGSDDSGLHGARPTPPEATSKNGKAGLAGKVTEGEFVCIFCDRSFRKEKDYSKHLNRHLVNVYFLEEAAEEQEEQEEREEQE
# Assay: co-IP; streptavidin beads, nuclear extract of biotin-tagged REST ESCs or BirA control ESCs; Western blot
row,binding,Substance
1,no binding,Eed (from UniProt Q921E6 1-441)
2,binds,Suz12 (from UniProt Q80U70 1-741)
